# According to PubChem BioAssay AID1347076 (National Center for Advancing Translational Sciences (NCATS), 2019):
# Out of some 400,000 compounds screened, about 13,000 (3.2%) were called active. The inconclusive results got no clear call from the source; some entries with a clear call stand among them for comparison. Calls come from the whole dose curve; as a rule, active = well fitted cell-killing curve with a large enough effect; inconclusive = small, poorly fitted or top-dose-only effect, or effect the other way; inactive = flat fitted curve, though single readings scatter. Potencies beside an inconclusive call are fits to weak or partial responses and may not hold up.
# Assay: qHTS assay for MDR1-selective chemotherapeutics: Primary screen using the drug-selected MDR subline cells KB-V1; note: nearly all actives have a fitted effect of over 60% in size
# Details: KB-V1 MDR cells viability, CellTiter-Glo, 72 h; activity change, negative = cytotoxicity: at 46.1 µM (top of the series)
# Procedure, shortened: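 Cytotoxicity toward P-gp-expressing KB-V1 cells was determined as loss of CellTiter-Glo luminescence after 72 h at 37 degrees C. Compounds were tested in quantitative HTS format across a concentration range, with curves fitted to normalized data.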
# % is set by controls: 0 for no effect and ±100 for the full control effect; potency is the fitted concentration of half-maximal effect.
Structure (SMILES),Potency,"activity change, negative = cytotoxicity"
O=C(Cn1c2ccccc2c(=O)c2cc([N+](=O)[O-])ccc21)Nc1ccccc1Cl,inactive,
COC(=O)C1=C(C)NC(=O)/C1=C\c1cc(C)n(-c2ccccc2F)c1C,"inconclusive: 7.31 µM [cytotoxic, partial curve]",
Nc1ccc(/C=C/c2ccc3cccnc3c2)cc1,"inconclusive: 20.6 µM [cytotoxic, single point]",
Cc1cccc(OCC(=O)Nc2cccc(OCc3cc(=O)n4cccc(C)c4n3)c2)c1,"inconclusive: 0.0052 µM [cytotoxic, full curve, poor fit]",
O=C(/C=C/c1ccccc1)Nc1cc(-c2nc3cc(Cl)ccc3o2)ccc1Cl,"inconclusive: 18.4 µM [rising, single point]",
CCn1cc([N+](=O)[O-])c(C(=O)Nc2ccn(C34CC5CC(CC(C5)C3)C4)n2)n1,inactive,
CCCCCCCCN1C(=O)[C@H](CC(=O)NCC2CCCCC2)C[C@@]2(C(=O)OC)CC(C)(C)CC=C12,"inconclusive: 13 µM [cytotoxic, partial curve]",
CCN(CC)c1ccc2cc(C(=O)Nc3ccccn3)c(=O)oc2c1,inactive,
Cc1c(Br)c([N+](=O)[O-])nn1CCCC(=O)N1CCN(c2ccccc2)CC1,active: 20.6 µM,
CC1=NN(C(=O)c2ccc(Cn3nc(C)cc3C)o2)C(O)(C(F)(F)F)C1 (stereo unspecified),inactive,
CCCCC(=O)Nc1ccc(NC(=O)c2cc(OC)c(OC)c(OC)c2)cn1,inactive,
O=C(OCc1nc2scc(-c3ccccc3)c2c(=O)[nH]1)c1cc([N+](=O)[O-])ccc1Cl,"inconclusive: 29.1 µM [cytotoxic, single point]",
CN(C)S(=O)(=O)n1cc(/C=C(\NC(=O)c2ccccc2Cl)C(=O)N2CCOCC2)c2ccccc21,"inconclusive: 29.1 µM [rising, single point]",
Cc1ccccc1S(=O)(=O)Cc1ccc(C(=O)N2CCN(c3ncccn3)CC2)o1,"inconclusive: 14.6 µM [cytotoxic, partial curve, poor fit]",
CCc1ccc(CN2C(=O)CCC2(C)C(=O)NC2CCCC2)cc1 (stereo unspecified),active: 20.6 µM,
CCCCOc1ccc2c(c1)/C(=C(\C(Cl)=C(Cl)Cl)[N+](=O)[O-])N2,active: 20.6 µM,
CCn1c(=O)cc(OCC(=O)NCc2ccc(C)o2)c2ccccc21,active: 18.4 µM,
COCCCN(C(=S)Nc1cc(Cl)cc(Cl)c1)C(C)c1ccccn1 (stereo unspecified),"inconclusive: 23.1 µM [cytotoxic, single point]",
CCC(=O)Nc1nnc(-c2ccc(Cl)s2)o1,inactive,
CCCCNC(=O)c1ccc2c(c1)N(Cc1ccc(F)cc1)C(=O)c1ccccc1S2=O (stereo unspecified),"inconclusive: 16.4 µM [cytotoxic, single point]",
CC1=C(C)CC(C(=O)NCc2ccc3c(c2)OCO3)C(C(=O)O)C1 (stereo unspecified),"inconclusive: 6.51 µM [rising, full curve]",
CCn1c(=NC(=O)C2COc3ccccc3O2)sc2c(C)ccc(OC)c21 (stereo unspecified),"inconclusive: 29.1 µM [cytotoxic, single point]",
O=C(CSCc1ccc(Br)cc1)NC1CC1,"inconclusive: 29.1 µM [rising, single point]",

Structure (SMILES),Potency,"activity change, negative = cytotoxicity"
CN(C(=O)OCc1ccccc1)C(CC(N)=O)C(=O)O (stereo unspecified),inactive,
O=C(/C=C/c1cccc([N+](=O)[O-])c1)Nc1cccc(NC(=O)c2ccco2)c1,"inconclusive: 29.1 µM [cytotoxic, single point]",
COc1ccc(CCNc2nc(-c3cccnc3)nc3ccccc23)cc1OC,active: 8.2 µM,
CC1=C(C(=O)N2CCCCCC2)CC(CC(=O)NC2CCCC2)C(=O)N1Cc1ccc(C(C)(C)C)cc1 (stereo unspecified),"inconclusive: 4.11 µM [cytotoxic, full curve]",
CC(=O)Nc1ccc(NC(=O)C2CCN(c3ccc(C(F)(F)F)cn3)CC2)cc1,inactive,
CCSc1ncc(Cl)c(C(=O)N2CCN(c3ccccc3OC)CC2)n1,active: 3.66 µM,
CSc1ccc(S(=O)(=O)NCCSc2ccccn2)cc1,"inconclusive: 23.1 µM [cytotoxic, single point]",
CCCCN(C)C(=O)CCC(=O)Nc1ccc2nc(N3CCOCC3)cc(C)c2c1,"inconclusive: 16.4 µM [cytotoxic, single point]",
C/C=C/c1ccc(OCC(=O)O)c(OC)c1,inactive,
Cc1ccc2cccc(Oc3ncnc4scc(-c5ccccc5)c34)c2n1,"inconclusive: 29.1 µM [cytotoxic, single point]",
COc1ccc(C(=O)N(C)Cc2ccccc2F)cc1S(=O)(=O)N1CCCC1,inactive,
CCCNC(=O)C1(CC2CC(c3ccccc3)=NO2)CCN(C(=O)C2(C)CC2)CC1 (stereo unspecified),,inconclusive: 30.8%
CC1=C(C(=O)Nc2ccc(Br)cc2)C(c2ccco2)NC(=O)N1 (stereo unspecified),inactive,
CCN1CCN(C(=O)c2cc(COc3ccc(F)c(F)c3)on2)[C@@H](C)C1=O,"inconclusive: 23.1 µM [cytotoxic, single point]",
CCOC(=O)C1CCN(c2c(NCc3ccc(C(=O)NC4CCCC4)cc3)c(=O)c2=O)CC1,"inconclusive: 29.1 µM [rising, single point]",
COc1ccc(C(=O)N/N=C2\CCc3ccccc32)cc1OC,"inconclusive: 25.9 µM [cytotoxic, partial curve, poor fit]",
COc1ccc(C2=NN(C(=O)CSc3nc4ccccc4s3)C(c3ccc(OC)cc3)C2)cc1 (stereo unspecified),"inconclusive: 20.6 µM [cytotoxic, partial curve, poor fit]",
CCOC(=O)CCc1cnccc1-c1cccc(OC)c1O,"inconclusive: 11.6 µM [rising, partial curve, poor fit]",
CCC(C)(C)NC(=O)CN(CCc1cccc(C)c1)C(=O)c1csnn1,inactive,
CS(=O)(=O)N(CC(=O)NCc1ccco1)c1ccc(OCc2ccccc2)cc1,inactive,
Cc1ccc(NC(=O)c2c(C)cc(C)nc2SCC(=O)Nc2ccc(Br)cc2)cc1,inactive,
CCOC(=O)c1cnc(-n2cc(C)cn2)nc1Nc1ccccc1OC,active: 1.84 µM,
Clc1cccc(Cl)c1Cn1c(-c2cccnc2Cl)nc2ccccc21,inactive,

# Taken from the results shown, 9 compounds:
Structure (SMILES),Potency,"activity change, negative = cytotoxicity"
CCN1CCN(C(=O)c2cc(COc3ccc(F)c(F)c3)on2)[C@@H](C)C1=O,"inconclusive: 23.1 µM [cytotoxic, single point]",
CCOC(=O)C1CCN(c2c(NCc3ccc(C(=O)NC4CCCC4)cc3)c(=O)c2=O)CC1,"inconclusive: 29.1 µM [rising, single point]",
COc1ccc(C(=O)N/N=C2\CCc3ccccc32)cc1OC,"inconclusive: 25.9 µM [cytotoxic, partial curve, poor fit]",
COc1ccc(C2=NN(C(=O)CSc3nc4ccccc4s3)C(c3ccc(OC)cc3)C2)cc1 (stereo unspecified),"inconclusive: 20.6 µM [cytotoxic, partial curve, poor fit]",
CCOC(=O)CCc1cnccc1-c1cccc(OC)c1O,"inconclusive: 11.6 µM [rising, partial curve, poor fit]",
CCC(C)(C)NC(=O)CN(CCc1cccc(C)c1)C(=O)c1csnn1,inactive,
CS(=O)(=O)N(CC(=O)NCc1ccco1)c1ccc(OCc2ccccc2)cc1,inactive,
Cc1ccc(NC(=O)c2c(C)cc(C)nc2SCC(=O)Nc2ccc(Br)cc2)cc1,inactive,
CCOC(=O)c1cnc(-n2cc(C)cn2)nc1Nc1ccccc1OC,active: 1.84 µM,
